# Test system: HEK293 cells
# Assay: Processing of V5-tagged PCSK9 mutants in transiently transfected HEK293 cells (Western blot, V5 mAb)
# Assay type: cell-based
# Settings: media and lysates of HEK293 cells; FIG. 5
row,Substance,N-terminally truncated N2 form (loss of ~8 kDa from N1)
1,"R218S: natural PCSK9 mutant Arg218-to-Ser, hypercholesterolemia-associated, Furin/PC5A-resistant",not observed
2,R237W: natural PCSK9 variant R237W (Table 1),occurs also
3,"F216L: natural PCSK9 mutant Phe216-to-Leu, hypercholesterolemia-associated",significantly decreased
4,"H226A: active site mutant of PCSK9, an inactive enzyme form that remains as zymogen in the ER [reference compound]",remains in the ER as propCSK9

# Source: patent US8338568B2, “Chimeric PCSK9 proteins, cells comprising same, and assays using same” (Adaerata, Limited Partnership, priority 2006, dated 2012)
